Reference: publication PMC10827914 (Cellular and Molecular Life Sciences: CMLS, 2024)
No constants are given. Whether binding was seen depends on the method and setting. Some binding calls cover weakened binding; strength is not graded here. Values belong to the binder of their own block, whether it stands above or below them.

Amino acid sequences for entries named in this document (tags omitted). A change or cut given only in a name is not applied to a line headed by its entry. Residues count along the entry.
UniProt P15144: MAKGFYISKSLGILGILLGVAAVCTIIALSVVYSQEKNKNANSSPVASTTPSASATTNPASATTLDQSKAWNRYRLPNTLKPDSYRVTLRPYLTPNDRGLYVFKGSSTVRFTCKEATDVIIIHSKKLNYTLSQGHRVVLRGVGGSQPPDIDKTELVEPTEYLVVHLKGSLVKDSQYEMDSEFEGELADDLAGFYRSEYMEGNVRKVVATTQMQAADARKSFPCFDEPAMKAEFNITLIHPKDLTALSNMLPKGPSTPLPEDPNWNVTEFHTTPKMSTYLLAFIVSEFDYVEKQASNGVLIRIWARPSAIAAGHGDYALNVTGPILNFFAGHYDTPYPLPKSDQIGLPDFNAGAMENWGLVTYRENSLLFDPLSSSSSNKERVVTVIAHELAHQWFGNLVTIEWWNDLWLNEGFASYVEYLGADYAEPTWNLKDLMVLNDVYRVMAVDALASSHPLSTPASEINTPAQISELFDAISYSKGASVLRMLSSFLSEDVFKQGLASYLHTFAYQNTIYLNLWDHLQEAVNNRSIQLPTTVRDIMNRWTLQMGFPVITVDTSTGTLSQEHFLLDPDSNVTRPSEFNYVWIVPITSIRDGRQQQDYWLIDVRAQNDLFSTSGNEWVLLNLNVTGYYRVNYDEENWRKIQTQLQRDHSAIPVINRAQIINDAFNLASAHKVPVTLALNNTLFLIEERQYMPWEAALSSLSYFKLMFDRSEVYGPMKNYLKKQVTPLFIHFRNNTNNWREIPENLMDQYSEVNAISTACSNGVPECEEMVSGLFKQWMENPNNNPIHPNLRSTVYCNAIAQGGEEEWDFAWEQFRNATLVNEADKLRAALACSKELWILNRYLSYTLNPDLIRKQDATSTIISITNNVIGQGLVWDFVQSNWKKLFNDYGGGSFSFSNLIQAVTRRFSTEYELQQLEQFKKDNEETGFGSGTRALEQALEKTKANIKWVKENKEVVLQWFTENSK
natural soluble CD13 from human plasma (sCD13) (human (endogenous in human serum)): residues 33-967 of P15144
UniProt P10645: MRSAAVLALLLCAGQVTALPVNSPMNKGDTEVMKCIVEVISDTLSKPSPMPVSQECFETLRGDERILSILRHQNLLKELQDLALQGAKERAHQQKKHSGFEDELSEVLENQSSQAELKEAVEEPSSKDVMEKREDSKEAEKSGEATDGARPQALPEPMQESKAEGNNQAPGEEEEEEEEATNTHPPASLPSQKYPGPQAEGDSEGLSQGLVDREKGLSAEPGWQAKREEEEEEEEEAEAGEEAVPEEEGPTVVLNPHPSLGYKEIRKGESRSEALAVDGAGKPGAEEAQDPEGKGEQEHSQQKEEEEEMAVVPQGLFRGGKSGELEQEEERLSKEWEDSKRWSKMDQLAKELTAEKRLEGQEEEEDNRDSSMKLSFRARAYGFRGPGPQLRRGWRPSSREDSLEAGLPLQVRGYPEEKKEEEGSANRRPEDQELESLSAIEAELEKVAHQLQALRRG

How the values were obtained:
[1] = target: membrane form of CD13 expressed by endothelial cells (HUVEC) (human (endogenous in HUVEC)) (UniProt P15144); test: flow cytometry on cells; competition: HUVEC or HL-60 cells with mAb WM15 (0.13 nM) mixed with competitor (G4 0-10 µM), DPBS with 5% normal human serum, 1 h at 4 °C; FITC-labeled goat anti-mouse IgG; only the binder purified
[2] = target: His-tagged recombinant human CD13 (rCD13) (human) (UniProt P15144); test: ELISA; competition of the binding of rCD13 to mAb WM15 by peptides or G4-TNF; performed as described in Supplementary Fig. S2 (not shown); both purified
[3] = target: membrane form of CD13 expressed by HL60 promyelocytic leukemia cells (human (endogenous in HL-60)) (UniProt P15144); test: flow cytometry on cells; data not shown: competition of mAb WM15 binding to HL60 cells with G4 or control peptide; only the binder purified
[4] = target: natural soluble CD13 from human plasma (sCD13) (human (endogenous in human serum)) (UniProt P15144); test: ELISA; competition: plates coated with mAb WM15 (5 μg/mL), filled with human serum containing sCD13 (diluted 1:2) mixed with competitors in DPBS, 0.1% BSA, 0.05% Tween-20, 2 h at room temperature; bound sCD13 detected with rabbit anti-CD13 polyclonal antibody; only the binder purified

- binding [1]: no binding (tested: 10 µM)
B1: chromogranin A 429-439 peptide fragment (CgA429-439) (peptide, UniProt P10645 447-457)
peptide: VAHQLQALRRG

- binding [2]: binds
- binding [3]: binds
- binding [1]: binds
- binding [4]: binds
B2: peptide … (disulfide-bridged, called G4) (peptide)
peptide: VGCARRYCS
modifications: disulfide-bridged
